Consider two substances from article PMC9968297.

By UniProt entry, the sequences of proteins in these tests, tags left out.
UniProt Q9NP77: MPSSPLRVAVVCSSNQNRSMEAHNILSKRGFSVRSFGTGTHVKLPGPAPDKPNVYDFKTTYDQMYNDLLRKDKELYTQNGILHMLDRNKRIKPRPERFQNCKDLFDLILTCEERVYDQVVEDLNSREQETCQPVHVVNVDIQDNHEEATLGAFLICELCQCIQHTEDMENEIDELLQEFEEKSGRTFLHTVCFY
UniProt P05198: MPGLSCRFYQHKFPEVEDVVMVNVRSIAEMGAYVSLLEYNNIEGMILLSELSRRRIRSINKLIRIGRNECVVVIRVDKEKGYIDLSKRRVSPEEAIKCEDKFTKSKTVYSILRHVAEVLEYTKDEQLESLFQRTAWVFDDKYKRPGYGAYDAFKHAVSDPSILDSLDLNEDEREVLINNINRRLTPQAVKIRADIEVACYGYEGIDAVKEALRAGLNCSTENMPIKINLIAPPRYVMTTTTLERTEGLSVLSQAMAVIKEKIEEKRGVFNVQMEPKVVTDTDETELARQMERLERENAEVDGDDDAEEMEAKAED

The target in one assay is Myc-tagged Ssu72 (UniProt Q9NP77). As to the kind of experiment: co-IP; 293T cells transfected with Myc-Ssu72 and HA-eIF2α; 500 μg lysate in IP lysis buffer (20 mM Tris-HCl pH 7.4, 150 mM NaCl, 1% Triton X-100, 1 mM EDTA, 1 mM EGTA) immunoprecipitated with anti-Myc antibody overnight at 4 °C, protein A/G agarose; immunoblot. On the technique in general: A western blot detects proteins with antibodies after separation by electrophoresis.

A further assay addresses GST-fused eIF2α (UniProt P05198). Nature of the assay: pull-down; bead bound GST-eIF2α (2 μg) incubated with His-Ssu72 WT (2 μg) in 20 mM Tris-HCl pH 7.4, 100 mM NaCl, 0.5% NP-40, 1 mM EDTA, 1 mM DTT with glutathione beads, 3 h at 4 °C; washed with 150 mM NaCl, 1% NP-40 buffer; both purified.

These are yes or no findings as the source states them, for the method shown. For some assays here: In cells and extracts the contact can be indirect. Some entries that bind do so weakly or less than the wild type.

Regarding “HA-tagged eIF2α (from UniProt P05198 1-315)”, in the assay with Myc-tagged Ssu72, the binding entry is listed as “binds”.

On to “His-tagged Ssu72 (from UniProt Q9NP77 1-194) (enzyme)”, for which the binding result in the assay with GST-fused eIF2α is given as “binds”.
